Source: US20220047687A1, “CHEMICAL SCALPEL” (FUNDACIÓN INSTITUTO DE INVESTIGACIÓN SANITARIA FUNDACIÓN …, priority 2019, published 2022)

Tested on: mesothelial layer covering the intestinal tract
Assay: First tests of peritoneal washing with collagenase on rat (Wistar)
Assay type: in vivo
Details: Wistar rats
Description: For the purpose of fine-tuning the volume of the cavity and the optimum treatment time so that no organ in the cavity will sustain any damage, twenty 6-week old Wistar rats weighing 250 grams were used, and they were tested at different concentrations of 35 U/mL of collagenase and 37 U/mL of collagenase for clinical use. Up until now, all the studies had been performed with collagenase for experimental use, nevertheless, the choice was made to use collagenase authorized for clinical use from now on, taking into account the potency equivalence calculations requested from the manufacturer. A study was then conducted using different times of treatment with collagenase from 2 minutes to 30 minutes (30, 20, 15, 10, 5, and 2) with n=2 in the 4 intermediate times.

**Q.** Collagenase was tested. Which “ideal concentration of collagenase” value did it give?
**A.** 35 U/mL

**Q.** And the best treatment time (35 U/mL)?
**A.** 10 to 15 min
